Source: patent publication US20240277847A1, “BENCH-STABLE TRIAZENE COMPOSITIONS FOR PROTEIN MODIFICATION” (ARIZONA BOARD OF REGENTS ON BEHALF OF THE UNIVERSITY OF …, priority 2021, published 2024)

assay: Effect of ring structure on diazonium release, 1 hr 370 nm UV at pH 7 with resorcinol; format: physicochemical; conditions: 1 equivalent resorcinol, 50% MeOH / 0.1 M PBS pH 7, 370 nm UV irradiated 1 hr

Row | SMILES | relative yield of azo-adduct
1 | Cc1ccc(N=NN2CCCCC2)cc1 [1h] | 30%
2 | c1ccc(N=NN2CCCC2)cc1 [3a] | 32%
3 | c1ccc(N=NN2CCOCC2)cc1 [5a] | 8%

assay: Diazonium release in pH 4 citrate buffer, trapped with resorcinol as azo-adduct; format: physicochemical; conditions: 1 equivalent resorcinol, 0.1 M pH 4 citrate buffer, 3 hours

Row | SMILES | yield of azo-adduct
4 | O=[N+]([O-])c1ccc(N=NN2CCCCC2)cc1 [1a] | failed to produce any of the corresponding azo-adducts
5 | N#Cc1ccc(N=NN2CCCCC2)cc1 [1b] | failed to produce any of the corresponding azo-adducts
6 | FC(F)(F)c1ccc(N=NN2CCCCC2)cc1 [1c] | failed to produce any of the corresponding azo-adducts
7 | c1ccc(N=NN2CCCCC2)cc1 [1g] | 20%
8 | Cc1ccc(N=NN2CCCCC2)cc1 [1h] | 31%
9 | COc1ccc(N=NN2CCCCC2)cc1 [1i] | 56%
10 | COc1cccc(N=NN2CCCCC2)c1 [m-OCH3] | diminished yields
11 | Brc1ccc(N=NN2CCCCC2)cc1 [p-Br] | diminished yields
12 | CNC(=O)c1ccc(N=NN2CCCCC2)cc1 [p-CONHCH3] | failed to produce any of the corresponding azo-adducts

Some entries repeat one wording, which the source may state once for all of them.
